# Percent effect of library compounds

Sequences of proteins named here, by UniProt entry; tags and fusion partners are left off. Residues count along the entry.
UniProt Q4DA54, 1-478: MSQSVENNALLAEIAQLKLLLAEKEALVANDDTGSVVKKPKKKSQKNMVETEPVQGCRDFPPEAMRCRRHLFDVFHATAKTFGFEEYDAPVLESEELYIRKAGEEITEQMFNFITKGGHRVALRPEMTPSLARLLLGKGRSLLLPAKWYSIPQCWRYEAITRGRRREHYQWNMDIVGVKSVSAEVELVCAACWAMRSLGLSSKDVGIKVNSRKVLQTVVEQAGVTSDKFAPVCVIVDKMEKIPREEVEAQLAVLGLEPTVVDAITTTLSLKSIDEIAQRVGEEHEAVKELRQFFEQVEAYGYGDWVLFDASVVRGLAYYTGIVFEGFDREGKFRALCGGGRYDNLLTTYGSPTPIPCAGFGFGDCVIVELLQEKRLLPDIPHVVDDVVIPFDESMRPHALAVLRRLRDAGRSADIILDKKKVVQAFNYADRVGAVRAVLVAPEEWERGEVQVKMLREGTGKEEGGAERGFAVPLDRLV
UniProt A4I591, 1-473: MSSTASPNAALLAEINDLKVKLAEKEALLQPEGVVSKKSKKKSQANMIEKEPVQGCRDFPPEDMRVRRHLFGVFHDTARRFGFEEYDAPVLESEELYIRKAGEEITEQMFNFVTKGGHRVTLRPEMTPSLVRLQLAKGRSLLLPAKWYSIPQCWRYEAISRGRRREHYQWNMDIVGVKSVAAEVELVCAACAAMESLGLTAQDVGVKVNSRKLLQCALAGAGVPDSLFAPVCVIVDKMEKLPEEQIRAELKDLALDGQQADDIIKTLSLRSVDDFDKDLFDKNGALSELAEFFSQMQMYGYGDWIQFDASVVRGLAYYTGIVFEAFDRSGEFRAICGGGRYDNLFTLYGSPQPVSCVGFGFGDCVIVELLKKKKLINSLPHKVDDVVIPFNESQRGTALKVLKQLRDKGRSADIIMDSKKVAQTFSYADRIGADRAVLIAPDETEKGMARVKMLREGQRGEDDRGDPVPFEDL

The values are deposited in ChEMBL (CHEMBL3988442, “University of Dundee, Small-Polar-MMV Screening Library” (2021)).

Toxoplasma: 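Assay of Toxoplasma gondii numbers, read through their beta-galactosidase reporter with a colour substrate. Tested at 10 µM. The record gives no direction; the compounds picked for IC50 retests had high values, so higher reads as fewer parasites. Of about 67,000 compounds tested this way, about 260 (0.38%) reached 50% or more in at least one test.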
TcHisRS: 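Enzyme assay of histidyl-tRNA synthetase; the read-out is not stated. Target: Histidine-tRNA ligase, Trypanosoma cruzi CL Brener (UniProt Q4DA54). Tested at 30 µM. The record gives no direction; compounds that gave an IC50 in retests scored well above the rest, so higher reads as stronger inhibition. About 69,000 compounds were tested under these conditions; 0.045% (about 31) showed 50% or more at least once.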
LiHisRS: 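Histidine-tRNA ligase, Leishmania infantum (UniProt A4I591). Enzyme assay of histidyl-tRNA synthetase; the read-out is not stated. Compounds at 30 µM. The record gives no direction; compounds that gave an IC50 in retests scored well above the rest, so higher reads as stronger inhibition. The assay is labelled LdHisRS but filed under L. infantum. Size under these conditions: about 69,000 compounds, about 410 of them at 50% or above in at least one test.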
T. brucei: 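Whole-parasite assay of Trypanosoma brucei over 72 hours; the read-out is not stated. Concentration: 30 µM. The record gives no direction; compounds that gave an IC50 in retests scored well above the rest, so higher reads as stronger inhibition. Values scatter widely below zero; nearly all retest evidence comes from the higher of the two concentrations used. Of about 64,000 compounds tested this way, about 940 (1.5%) reached 50% or more in at least one test.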

Values are the deposited “Percent Effect”, in %.
The controls that fix the scale are not given in the record; negative values are as filed.
This is an unselected part of the compounds tested.
A dash means the value is not listed here; it may have been measured.

With O=C(NC1CCCC1)O[C@H]1COCCN(c2nc3ccccc3o2)C1 the screen gave Toxoplasma: -1.364%; TcHisRS: 7.921%; LiHisRS: 27.78%; T. brucei: -23.72%.
With O=C(CCc1ccccn1)NC1CCCN(C2Cc3ccccc3C2)C1 (stereo not shown) the screen gave TcHisRS: -1.149%; LiHisRS: 8.065%; T. brucei: -14.86%.
With CC(C)N1CCC2(CCNCC2)C1=O the screen gave TcHisRS: -0.9709%; LiHisRS: 1.923%.
With COc1ccc(Cn2nc(C(N)=O)ccc2=O)c(Cl)c1 the screen gave Toxoplasma: 1.438%; TcHisRS: 1.053%; LiHisRS: 27.4%; T. brucei: 4.176%.
With COc1ccc(CC(=O)N2CCCN(c3ccc(C#N)cc3)CC2)cc1 the screen gave Toxoplasma: -0.6536%; TcHisRS: 4.348%; LiHisRS: 22.86%; T. brucei: 55.65%.
With Cc1cc(C)c(CNC(=O)N2CCOC(c3ccccc3)C2)c(=O)[nH]1 (stereo not shown) the screen gave Toxoplasma: -6.484%; TcHisRS: 7.736%; LiHisRS: 15.79%; T. brucei: 7.544%.
With O=C(c1cc(Cl)ccc1OC1CCN(C2CCCC2)CC1)N1CCCO1 the screen gave Toxoplasma: 13.31%; TcHisRS: 1.63%; LiHisRS: 16%; T. brucei: -8.748%.
With COc1ccc(NC(=O)Nc2cnc(N3CCN(C)CC3)nc2)cc1Cl the screen gave Toxoplasma: 12.64%; TcHisRS: 8.543%; LiHisRS: -49.44%; T. brucei: 8.357%.
With Cc1ccc(S(N)(=O)=O)cc1C(=O)NC1CCN(C2CC2)CC1 the screen gave Toxoplasma: 30.07%; TcHisRS: 5%; LiHisRS: 0%; T. brucei: -31.15%.
With CCOC(=O)N1CCN(c2nc(N3CCCC3)c3ccccc3n2)CC1 the screen gave Toxoplasma: -5.867%; TcHisRS: 10.23%; LiHisRS: -20%; T. brucei: -18.6%.
With Cc1cc(C)c(CNC(=O)N2CCC(N3CCNC3=O)CC2)c(C)c1 the screen gave Toxoplasma: 12.92%; TcHisRS: 7.216%; LiHisRS: 9.677%; T. brucei: -57.55%.
With CCCNC(=O)NC(=O)CNC(C)(C)c1ccc2c(c1)OCO2 the screen gave Toxoplasma: -15.34%; TcHisRS: 5.233%; LiHisRS: 12.5%; T. brucei: 9.827%.
With COCCn1cc(NCc2c[nH]nc2-c2ccc(OC)cc2)cn1 the screen gave Toxoplasma: 7.85%; TcHisRS: 2.062%; LiHisRS: 32.26%; T. brucei: -27.87%.
With O=C(c1cccn1-c1ccc2c(c1)OCCO2)N1CCCC1 the screen gave Toxoplasma: -16.74%; TcHisRS: 2%; LiHisRS: 10.2%; T. brucei: -22.28%.
With COCC(C)NC(=O)c1cn(C(C)(C)C)c2ncccc12 (stereo not shown) the screen gave Toxoplasma: -5.245%; TcHisRS: -3.226%; LiHisRS: 22.86%; T. brucei: 1.828%.
With OCCOc1ccc(NCc2cccc3cccnc23)cn1 the screen gave Toxoplasma: 1.406%; TcHisRS: 9.091%; LiHisRS: 5%; T. brucei: -114.6%.
With O=C(c1ccc(-n2cnnc2)cc1Cl)N1CCCC2(CCNC2)C1 (stereo not shown) the screen gave Toxoplasma: -0.1669%; TcHisRS: 10.71%; LiHisRS: 13.95%; T. brucei: -3.728%.
With Cc1noc(C)c1CN1CCCC2(C1)CN(c1nccs1)CCO2 (stereo not shown) the screen gave TcHisRS: 6.863%; LiHisRS: 22.86%.
With Cc1ncsc1C(=O)N1CCCC(c2cc(C(F)F)n3ncnc3n2)C1 (stereo not shown) the screen gave Toxoplasma: 7.88%; TcHisRS: 3.191%; LiHisRS: 1.042%; T. brucei: -16.53%.
With Cc1cc(CCC(=O)O)nc(C2CCCN2c2ccnc(C)n2)n1 (stereo not shown) the screen gave Toxoplasma: -6.348%; TcHisRS: 4.478%; LiHisRS: 9.474%; T. brucei: 3.845%.
With O=C(c1ccc(-c2cccs2)cc1F)N1CCN(CCO)CC1 the screen gave Toxoplasma: 5.165%; TcHisRS: 7.263%; LiHisRS: 13.16%; T. brucei: 14.75%.
With C[C@@H]1CN(C(=O)NC2CC2)C[C@]12CCN(c1ccsc1)C2=O the screen gave Toxoplasma: -2.496%; TcHisRS: 6.011%; LiHisRS: 9.489%; T. brucei: 50.13%.
With CC(C)C(=O)N1CCc2nc(C(=O)Nc3cccnc3)sc2CC1 the screen gave Toxoplasma: 11.62%; TcHisRS: 2.299%; LiHisRS: 10.53%; T. brucei: -9.821%.
With Cc1cnc(-c2nc(O)c3c(n2)CN(C(=O)C2CCOC2)CC3)cn1 (stereo not shown) the screen gave Toxoplasma: 6.266%; TcHisRS: 5.639%; LiHisRS: 2.837%.

The first 3 entries again:

Compound	Toxoplasma	TcHisRS	LiHisRS	T. brucei
O=C(NC1CCCC1)O[C@H]1COCCN(c2nc3ccccc3o2)C1	-1.364	7.921	27.78	-23.72
O=C(CCc1ccccn1)NC1CCCN(C2Cc3ccccc3C2)C1 (stereo not shown)	-	-1.149	8.065	-14.86
CC(C)N1CCC2(CCNCC2)C1=O	-	-0.9709	1.923	-